For some assays here: Results from cells or extracts need not show a direct contact. Negatives hold for the conditions tested. Construct, isoform or probe ends are uncertain for at least one entry.
Experiments:
[1] = target: membrane-bound IgM (mIgM, immunoglobulin heavy mu chain of B-cell receptor) (Homo sapiens) (UniProt P01871); assay: flow cytometry; settings: protein on the cell surface, protein details: endogenous on Ramos Burkitt's lymphoma cells, single-stranded DNA; for Kd: Bmax/2 on Ramos cells, 37 C, letters built from the parent sequence and the stated change
[2] = system: soluble IgM (pentameric, purified); assay: competition with a labelled probe; settings: purified native protein, single-stranded DNA

The chains behind the UniProt entries cited, without tags or fusion partners.
UniProt P01871, whole entry: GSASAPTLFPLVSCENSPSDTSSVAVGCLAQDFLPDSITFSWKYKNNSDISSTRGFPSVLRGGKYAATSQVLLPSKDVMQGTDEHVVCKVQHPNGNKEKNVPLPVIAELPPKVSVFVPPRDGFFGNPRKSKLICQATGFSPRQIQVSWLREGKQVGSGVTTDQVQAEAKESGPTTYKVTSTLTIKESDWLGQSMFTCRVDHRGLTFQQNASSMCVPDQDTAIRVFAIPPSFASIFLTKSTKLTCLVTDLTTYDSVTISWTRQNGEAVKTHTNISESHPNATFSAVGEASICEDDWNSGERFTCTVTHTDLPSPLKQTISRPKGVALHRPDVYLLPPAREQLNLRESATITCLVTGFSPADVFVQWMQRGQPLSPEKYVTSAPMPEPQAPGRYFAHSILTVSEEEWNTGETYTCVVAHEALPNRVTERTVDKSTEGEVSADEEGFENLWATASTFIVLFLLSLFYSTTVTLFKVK

“AGGAGGATAGTTCGGTGGCTGTTCAGGGTCTCCTCCTAGGAGGATAGTTCGGTGGCTGTTCAGGGTCTCCTCCT [L-BVA.8S]” was tested. Which Kd ([1]; TD05.17 (LNA) dimer with (spacer 18 PEG)8 linker, sp18 at 5' and 3' ends [LNA at 34-37 and 71-74 (Y = LNA T, N = LNA C), 5' label (D) and sp18 before 1, (spacer 18 PEG)8 linker between 37 and 38, sp18 after 74 (left out)], 20 mM MgCl2, label: 5' FITC, variant of TD05.17) did it give?
Its Kd is 6220 nM.

With “AGGAGGATAGTTCGGTGGCTGTTCAGGGTCTCCTCCTAGGAGGATAGTTCGGTGGCTGTTCAGGGTCTCCTCCTAGGAGGATAGTTCGGTGGCTGTTCAGGGTCTCCTCCTAGGAGGATAGTTCGGTGGCTGTTCAGGGTCTCCTCCT [TetVA.8S]” as the sequence, how does the Kd ([1]; TD05.1 tetramer with (spacer 18 PEG)8 linkers [(spacer 18 PEG)8 linkers between 37 and 38, 74 and 75, 111 and 112 (left out)], 20 mM MgCl2, label: FITC, variant of TD05.1) read?
Its Kd is 425 nM.

Does “AGGAGGATAGTTCGGTGGCTGTTCAGGGTCTCCTCCTAGGAGGATAGTTCGGTGGCTGTTCAGGGTCTCCTCCTAGGAGGATAGTTCGGTGGCTGTTCAGGGTCTCCTCCTAGGAGGATAGTTCGGTGGCTGTTCAGGGTCTCCTCCT [TetVA.8S]” bind ([2]; TD05.1 tetramer with (spacer 18 PEG)8 linkers [(spacer 18 PEG)8 linkers between 37 and 38, 74 and 75, 111 and 112 (left out)], excess soluble IgM does not affect binding to Ramos cells, decrease seen in 50% human serum, label: FITC, letters built from the parent sequence and the stated change, variant of TD05.1)?
Result: no binding

How did the Kd ([1]; TD05.1 trimer with (spacer 18 PEG)8 linkers [(spacer 18 PEG)8 linkers between 37 and 38, and between 74 and 75 (left out)], 20 mM MgCl2, label: 5' fluorophore, variant of TD05.1) turn out when “AGGAGGATAGTTCGGTGGCTGTTCAGGGTCTCCTCCTAGGAGGATAGTTCGGTGGCTGTTCAGGGTCTCCTCCTAGGAGGATAGTTCGGTGGCTGTTCAGGGTCTCCTCCT [TVA.8S]” was run?
Its Kd is 490 nM.

For “AGGAGGATAGTTCGGTGGCTGTTCAGGGTCTCCTCCTAGGAGGATAGTTCGGTGGCTGTTCAGGGTCTCCTCCT [BV.8S]”, which Kd ([1]; TD05.1 dimer with (spacer 18 PEG)8 linker [(spacer 18 PEG)8 linker between 37 and 38 (left out)], slightly higher binding than BV.6S and BV.12S at 4 C, label: 5' fluorophore, variant of TD05.1) is on record?
Its Kd is > 10000 nM.

With “AGGAGGATAGTTCGGTGGCTGTTCAGGGTCTCCTCCTAGGAGGATAGTTCGGTGGCTGTTCAGGGTCTCCTCCT [BV.6S]” as the sequence, how does the Kd ([1]; TD05.1 dimer with (spacer 18 PEG)6 linker [(spacer 18 PEG)6 linker between 37 and 38 (left out)], label: 5' fluorophore, variant of TD05.1) read?
Its Kd is > 10000 nM.

For “AGGAGGATAGTTCGGTGGCTGTTCAGGGTCTCCTCCTAGGAGGATAGTTCGGTGGCTGTTCAGGGTCTCCTCCTGGAGGATAGTTCGGTGGCTGTTCAGGGTCTCCTCCT [L-TVA.8S]”, which Kd ([1]; TD05.17 (LNA) trimer with (spacer 18 PEG)8 linkers, sp18 at 5' and 3' ends [LNA at 34-37, 71-74 and 107-110 (Y = LNA T, N = LNA C), 5' label (D) and sp18 before 1, (spacer 18 PEG)8 linkers between 37 and 38, 74 and 75, sp18 after 110 (left out), third unit printed without its 5' A], 20 mM MgCl2, label: 5' Cy3, variant of TD05.17) is on record?
The Kd was 256 nM.

Does “AGGAGGATAGTTCGGTGGCTGTTCAGGGTCTCCTCCT [TD05.1]” bind ([2]; excess soluble IgM or 20% human serum does not affect aptamer binding to Ramos cells, monomeric aptamer, label: 5' FITC or Cy3, variant of TD05)?
Result: no binding

Does “ACCGTGGAGGATAGTTCGGTGGCTGTTCAGGGTCTCCTCCACGGT [TD05]” bind ([1]; unable to bind Ramos cells at physiological conditions, signal falls to background at higher temperatures, label: 5' FITC or Cy3)?
Result: no binding

For “AGGAGGATAGTTCGGTGGCTGTTCAGGGTCTCCTCCTAGGAGGATAGTTCGGTGGCTGTTCAGGGTCTCCTCCT [BV.16S]”, which Kd ([1]; TD05.1 dimer with (spacer 18 PEG)16 linker [(spacer 18 PEG)16 linker between 37 and 38 (left out)], 20 mM MgCl2, label: 5' fluorophore, variant of TD05.1) is on record?
The Kd was 2030 nM.

For “AGGAGGATAGTTCGGTGGCTGTTCAGGGTCTCCTCCTAGGAGGATAGTTCGGTGGCTGTTCAGGGTCTCCTCCT [BV.12S]”, which Kd ([1]; TD05.1 dimer with (spacer 18 PEG)12 linker [(spacer 18 PEG)12 linker between 37 and 38 (left out)], label: 5' fluorophore, variant of TD05.1) is on record?
The Kd was > 10000 nM.

Source: patent US20120225088, “COMPOSITIONS AND METHODS FOR TREATING CANCER AND OTHER DISEASES” (published 2012)
